Some results were stated once for a whole list of compounds, not compound by compound.
Test system: human liver microsomes
Experiment: Identification of the p450 isozyme involved in activation, with specific p450 inhibitors (Example F)
Details: furafylline (CYP1A2) and sulfaphenazole (CYP2C9), 0-100 µM, 250 µM 30.1
Method: Reactions were stopped by addition of methanol to a concentration of 60%, filtered (0.2 µM filter), and lyophilized. Samples were resuspended in HPLC buffer (10 mM phosphate pH 5.5, 2.5 mM octyl-triethyl-ammonium), loaded onto a YMC C8 HPLC column (250 x 4.6 mm), and eluted with a methanol gradient to 80%.

## Cc1nc2c([nH]1)c(=O)n(C)c(=O)n2Cc1ccco1 [furafylline]
  inhibition of the formation of ara-AMP from 30.1: no significant inhibition
